Data as given in PubChem BioAssay AID504764 (Drosophila RNAi Screening Center, 2011).

Test: 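Knock-downs that raise or lower a Notch target reporter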 (primary screen)
Cell system: Drosophila Kc167 cells
Knock-down reagent: long dsRNA against Drosophila genes
Duration: about 5 days (4 days dsRNA, then 24 h after transfection)
Treatment: transfection of constitutively active membrane-tethered Notch lacking the extracellular domain, read 24 h later
Measured: 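Firefly luciferase from an E(spl)m3 reporter with active Notch, plus control-promoter and uninduced reporter wells for normalisation; unnormalised counts, duplicate wells a and b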
Reading the numbers: induced reporter light, run 1, well a and induced reporter light, run 1, well b: higher = more light from the Notch target reporter with active Notch; control promoter light, run 1, well a and control promoter light, run 1, well b: higher = more light from the viral control promoter (cell number, transfection, viability); uninduced reporter light, run 1, well a: higher = more light from the Notch target reporter without active Notch
Active means: 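Wells with low control signal or poorly matching duplicates excluded; duplicates averaged; per source plate, z beyond ±2 for induced/control log2 ratio or beyond ±1.8 for induced/uninduced marks a hit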
Meaning of the calls: active = modifier hit (raised or lowered Notch signal); inactive = not a hit
The deposit covers about 22,000 reagents; shown is an unselected part of those that have a named target and a result. In the full data, 403 (1.9%) got an active call. 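Unnormalised raw counts per well; ratio z-scores behind the hit calls and whether each hit raises or lowers signal are not deposited.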 The numbers tell different reagents against one gene apart. A plus sign joins genes that one reagent is predicted to hit. The record does not give: the amount of reagent.

| predicted target | reagent | induced reporter light, run 1, well a | induced reporter light, run 1, well b | control promoter light, run 1, well a | control promoter light, run 1, well b | uninduced reporter light, run 1, well a | Call |
| --- | --- | --- | --- | --- | --- | --- | --- |
| Best4 (GeneID 39660) | 1 | 1.90e5 | 2.16e5 | 2.66e5 | 2.17e5 | 13595 | inactive |
| spir (GeneID 45931) | 1 | 46905 | 39505 | 55070 | 41010 | 2555 | inactive |
| Tsp42Eq (GeneID 35628) | 1 | 2.27e5 | 2.19e5 | 3.53e5 | 2.61e5 | 19485 | inactive |
| Root (GeneID 42860) | 1 | 1.84e5 | 1.88e5 | 2.25e5 | 2.09e5 | 14455 | inactive |
| CG7342 (GeneID 42335) | 1 | 1.56e5 | 1.80e5 | 2.17e5 | 2.10e5 | 15260 | inactive |
| CG5646 (GeneID 43311) | 1 | 1.68e5 | 1.61e5 | 2.28e5 | 2.53e5 | 11675 | inactive |
| BigH1 (GeneID 41780) | 1 | 1.36e5 | 1.23e5 | 94830 | 83335 | 10130 | inactive |
| CG31805 (GeneID 318952) | 1 | 72605 | 69565 | 75510 | 76375 | 6520 | inactive |
| CG11825 (GeneID 36099) | 1 | 1.41e5 | 1.19e5 | 1.74e5 | 1.65e5 | 12155 | inactive |
| osp (GeneID 34850) | 1 | 1.33e5 | 95475 | 1.06e5 | 1.13e5 | 9975 | inactive |
| osp (GeneID 34850) | 2 | 1.39e5 | 1.90e5 | 1.14e5 | 1.07e5 | 13520 | inactive |
| Cdc37 (GeneID 38232) | 1 | 68055 | 48400 | 63565 | 58970 | 3132 | inactive |
| mtDNA-helicase (GeneID 34307) | 1 | 1.41e5 | 1.80e5 | 85630 | 1.17e5 | 21115 | inactive |
| meng (GeneID 33948) | 1 | 1.83e5 | 1.67e5 | 2.48e5 | 2.51e5 | 11925 | inactive |
| CG13581 (GeneID 37911) | 1 | 1.63e5 | 1.54e5 | 1.37e5 | 1.58e5 | 11935 | inactive |
| Octbeta2R (GeneID 41549) | 1 | 52100 | 61945 | 51195 | 42845 | 4025 | inactive |
| Octbeta2R (GeneID 41549) | 2 | 56285 | 38965 | 24410 | 22380 | 4885 | inactive |
| CG34277 + CG31542 | 1 | – | – | – | – | – | inactive |
| CG4338 (GeneID 41849) | 1 | 1.49e5 | 1.51e5 | 91560 | 1.03e5 | 10795 | inactive |
| wcy (GeneID 32690) | 1 | 92195 | 75525 | 62945 | 46025 | 5582 | inactive |
| CG16935 (GeneID 36540) | 1 | 81870 | 70680 | 1.03e5 | 1.11e5 | 7545 | inactive |
| CG7714 (GeneID 42250) | 1 | 1.99e5 | 1.90e5 | 1.80e5 | 1.97e5 | 14910 | inactive |
| Nedd8 (GeneID 35151) | 1 | 19870 | 15265 | 19595 | 28335 | 1420 | inactive |
| fra (GeneID 36377) | 1 | 93100 | 1.07e5 | 1.52e5 | 1.79e5 | 10800 | inactive |
| Duba (GeneID 39302) | 1 | 1.02e5 | 1.08e5 | 80310 | 41635 | 11005 | inactive |
| CG1090 (GeneID 40551) | 1 | 1.34e5 | 1.24e5 | 83685 | 88965 | 9185 | inactive |
| CG6280 (GeneID 36522) | 1 | 77025 | 83680 | 1.03e5 | 92460 | 6805 | inactive |
| CG10466 (GeneID 35268) | 1 | 1.29e5 | 74980 | 89795 | 69605 | 5585 | inactive |
| CG3163 (GeneID 37836) | 1 | 1.89e5 | 1.77e5 | 1.81e5 | 1.97e5 | 13640 | inactive |
| betaCOP (GeneID 32820) | 1 | 51090 | 39645 | 47455 | 35135 | 4970 | inactive |
| Crag (GeneID 31800) | 1 | 1.64e5 | 1.40e5 | 1.90e5 | 1.55e5 | 10530 | inactive |
| CG31810 (GeneID 318955) | 1 | 60130 | 53710 | 66495 | 54815 | 5025 | inactive |
| Vps39 (GeneID 42192) | 1 | 61925 | 73005 | 57805 | 58700 | 5915 | inactive |

Continued, starting with the last 9 of the part before.
| predicted target | reagent | induced reporter light, run 1, well a | induced reporter light, run 1, well b | control promoter light, run 1, well a | control promoter light, run 1, well b | uninduced reporter light, run 1, well a | Call |
| --- | --- | --- | --- | --- | --- | --- | --- |
| Duba (GeneID 39302) | 1 | 1.02e5 | 1.08e5 | 80310 | 41635 | 11005 | inactive |
| CG1090 (GeneID 40551) | 1 | 1.34e5 | 1.24e5 | 83685 | 88965 | 9185 | inactive |
| CG6280 (GeneID 36522) | 1 | 77025 | 83680 | 1.03e5 | 92460 | 6805 | inactive |
| CG10466 (GeneID 35268) | 1 | 1.29e5 | 74980 | 89795 | 69605 | 5585 | inactive |
| CG3163 (GeneID 37836) | 1 | 1.89e5 | 1.77e5 | 1.81e5 | 1.97e5 | 13640 | inactive |
| betaCOP (GeneID 32820) | 1 | 51090 | 39645 | 47455 | 35135 | 4970 | inactive |
| Crag (GeneID 31800) | 1 | 1.64e5 | 1.40e5 | 1.90e5 | 1.55e5 | 10530 | inactive |
| CG31810 (GeneID 318955) | 1 | 60130 | 53710 | 66495 | 54815 | 5025 | inactive |
| Vps39 (GeneID 42192) | 1 | 61925 | 73005 | 57805 | 58700 | 5915 | inactive |
| CG31010 (GeneID 318555) | 1 | 92590 | 1.09e5 | 1.46e5 | 1.28e5 | 9520 | inactive |
| kkv (GeneID 45884) | 1 | 1.05e5 | 1.47e5 | 68125 | 74255 | 8885 | inactive |
| eater (GeneID 43262) | 1 | 1.52e5 | 1.63e5 | 1.99e5 | 1.88e5 | 14180 | inactive |
| eater (GeneID 43262) | 2 | – | – | – | – | – | inactive |
| Dh31-R (GeneID 36475) | 1 | 67030 | 51655 | 65335 | 60395 | 7220 | inactive |
| Dh31-R (GeneID 36475) | 2 | 82700 | 93975 | 1.32e5 | 1.27e5 | 9815 | inactive |
| CG10694 (GeneID 42855) | 1 | 1.54e5 | 1.42e5 | 2.08e5 | 1.83e5 | 13360 | inactive |
| dpr12 (GeneID 50320) | 1 | 61595 | 64555 | 82285 | 79650 | 3615 | inactive |
| dpr12 (GeneID 50320) | 2 | 2.20e5 | 1.96e5 | 1.89e5 | 1.82e5 | 12455 | inactive |
| dpr12 (GeneID 50320) | 3 | 2.28e5 | 2.19e5 | 2.38e5 | 1.78e5 | 14280 | inactive |
| Hsp70Bc (GeneID 48583) | 1 | 1.04e5 | 1.09e5 | 1.08e5 | 84920 | 5910 | inactive |
| CG14445 (GeneID 31556) | 1 | 1.38e5 | 1.40e5 | 2.18e5 | 2.28e5 | 11040 | inactive |
| Ir10a (GeneID 32067) | 1 | 68880 | 74495 | 84340 | 64120 | 5195 | inactive |
| Ir10a (GeneID 32067) | 2 | 87350 | 87550 | 79915 | 87955 | 6890 | inactive |
| Ir10a (GeneID 32067) | 3 | 1.17e5 | 1.22e5 | 1.93e5 | 3.08e5 | 9770 | inactive |
| CG6761 (GeneID 39134) | 1 | 1.08e5 | 1.50e5 | 84440 | 64550 | 10520 | inactive |
| CG4199 (GeneID 31174) | 1 | 1.97e5 | 2.33e5 | 2.94e5 | 3.71e5 | 14635 | inactive |
| CG13862 (GeneID 42610) | 1 | 1.87e5 | 1.98e5 | 2.19e5 | 2.08e5 | 13565 | inactive |
| apn (GeneID 41631) | 1 | 2.33e5 | 2.82e5 | 2.20e5 | 2.36e5 | 19832 | inactive |
| Mnat9 (GeneID 43726) | 1 | 1.29e5 | 1.40e5 | 2.40e5 | 1.77e5 | 8720 | inactive |
| CG4462 (GeneID 42376) | 1 | 1.68e5 | 1.76e5 | 2.40e5 | 2.79e5 | 16340 | inactive |
| CG5909 (GeneID 43274) | 1 | 1.27e5 | 1.40e5 | 2.14e5 | 1.97e5 | 11915 | inactive |
| CG13559 (GeneID 37720) | 1 | 1.46e5 | 1.30e5 | 1.30e5 | 1.38e5 | 8600 | inactive |
| CG7492 (GeneID 38859) | 1 | 99500 | 88685 | 72935 | 34425 | 8205 | inactive |
| Cchl (GeneID 42590) | 1 | 69080 | 65795 | 89740 | 89920 | 5690 | inactive |
| yellow-d2 (GeneID 37704) | 1 | 2.62e5 | 2.65e5 | 1.89e5 | 2.38e5 | 21075 | inactive |
| CG12645 (GeneID 31947) | 1 | 63915 | 70655 | 68345 | 83270 | 5420 | inactive |
| CG34398 (GeneID 5740462) | 1 | 1.28e5 | 1.43e5 | 1.98e5 | 2.20e5 | 10850 | inactive |
| CG34398 (GeneID 5740462) | 2 | 1.42e5 | 1.66e5 | 89570 | 1.34e5 | 22505 | inactive |
| CG34398 (GeneID 5740462) | 3 | 2.11e5 | 2.05e5 | 1.50e5 | 1.59e5 | 15730 | inactive |
| CG34398 (GeneID 5740462) | 4 | 1.42e5 | 1.53e5 | 1.30e5 | 97180 | 21465 | inactive |
